Values joined by “and” are separate entries in the source; they are usually repeats but may differ in a detail not shown here. Equal values may be shown once. Some of the results follow. Shown are side measurements of this screen, not its main read-out; they come without a call. Most of these compounds were active or inconclusive in the main read-out, so they are no random draw. Words in brackets tell the shape of the fitted curve; partial curves, single points and poor fits give uncertain potencies.
Assay: qHTS Assay for Modulators of Lamin A Splicing
Settings: HeLa LMNA splicing GFP/RFP minigene ratio, 48 h
Procedure, shortened: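 S3 HeLa stable clones carrying a lamin A-EGFP splicing minigene plus DsRed2 were seeded at 600 cells/well in Opti-MEM with 2% FBS, pin-dosed and incubated 48 h at 37°C. Acumen cytometry (488 nm) gave the GFP/RFP total-intensity ratio.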

[1] = measured here: GFP splicing reporter channel
[2] = measured here: RFP viability control channel

Compound	AC50 [1]	AC50 [2]
Cc1ccc(-n2c([S-])c(C(=O)Nc3ccc(OC(F)F)cc3)[n+]3ccc(C(=O)NCCO)cc23)cc1C	1.58 µM [falling, full curve, poor fit]	5.01 µM [falling, partial curve]
CC(C)(CNC(=O)c1ccc(Cl)c(S(=O)(=O)N2CCc3ccccc3C2)c1)N1CCOCC1		14.1 µM [rising, partial curve]
COc1ccnc(N2CCN(c3ccc(Cl)cc3)CC2)c1C#N	3.98 µM [rising, single point]	
CC(=O)Nc1cccc(/C(C)=N/NC(=O)c2c(-c3ccccc3Cl)noc2C)c1	2.24 µM [rising, single point]	3.16 µM [rising, full curve]
CCOC(=O)c1c(C)n(C)c2ccc(OCC(O)Cn3c(C)nc4ccccc43)cc12 (stereo not drawn)		14.1 µM [rising, single point]
CCCCNC(=O)C1CCC(CNS(=O)(=O)c2ccc(NC(C)=O)cc2)CC1 (stereo not drawn)	35.5 µM [rising, single point] and 10 nM [falling, full curve, poor fit]	35.5 µM [rising, single point] and 5.01 nM [falling, full curve, poor fit]
CC(NC(=O)C(=O)N/N=C\c1ccc([N+](=O)[O-])cc1)c1ccccc1 (stereo not drawn)		6.31 µM [falling, single point]
CN1C2C=C(N(CCc3ccccc3)C(=O)c3ccc(Cl)cc3)CC1CC2 (stereo not drawn)	10 µM [falling, partial curve, poor fit]	7.08 µM [falling, partial curve, poor fit]
Cc1nc(-c2ccc(S(=O)(=O)NCc3ccc(N(C)C)cc3)cc2)co1	12.6 µM [falling, partial curve]	
CC(=O)Nc1ccc(S(=O)(=O)N2CCN(CC(O)COc3ccc4ccccc4c3)CC2)cc1 (stereo not drawn)		14.1 µM [rising, single point]
CC(C)NC(=S)NC(=O)c1ccc(-c2ccccc2)cc1		35.5 µM [rising, single point]
CC1(C)NC(=O)N(CCCCOc2ccc3ccccc3c2Cl)C1=O		14.1 µM [rising, single point]
Cc1cc(C)c(C)c(C(=O)CSc2nnc(-c3ccc4[nH]c(C)c(C)c4c3)o2)c1C	15.8 µM [rising, partial curve, poor fit]	8.91 µM [rising, partial curve, poor fit]
CCCOc1ccc(OCCOCCNCc2ccccc2)cc1	8.91 µM [rising, partial curve]	12.6 µM [rising, single point]
COc1ccc2c(c1)[nH]c1c(Cl)ncnc12		1.41 µM [falling, single point]
CCOC1(OCC)N=C(N)C2(C#N)C(c3cccc(OC)c3OC)C12C#N (stereo not drawn)	0.708 µM [falling, single point]	1.12 µM [falling, partial curve]
O=C1CC(c2cccc(Cl)c2)CC(O)=C1C=NC1CCCC1 (stereo not drawn)	14.1 µM [rising, single point]	
Cc1ccc2nc(-c3cccnc3)c(Nc3ccccc3C)n2c1	0.2 µM [rising, full curve]	0.0891 µM [rising, full curve, poor fit]
COc1ccccc1C1CCCN1Cc1nc(-c2ccc(C)s2)oc1C (stereo not drawn)	7.94 µM [falling, partial curve]	
CCC(C)(C)C(=O)Nc1cccc(Cl)c1C		0.708 µM [falling, single point]
Clc1ccc(C2=Nn3c(nnc3-c3cc(-c4ccccc4)n[nH]3)SC2)cc1	7.94 µM [rising, partial curve]	10 µM [rising, partial curve, poor fit]
CCc1cccc(CC)c1NC(=S)N(CCN(C)C)C(C)c1cccnc1 (stereo not drawn)		0.794 µM [rising, full curve, poor fit]
O=C(CCc1ccccc1)N/N=C/c1cc(Br)ccc1O		15.8 µM [rising, partial curve]
NS(=O)(=O)c1ccc(O)c(N2C(=O)c3cccc4c(C(=O)O)ccc(c34)C2=O)c1		0.891 µM [falling, single point]
COc1ccc(-c2csc(NCc3ccco3)n2)cc1		12.6 µM [rising, single point]
Cc1ccc(Nc2cc(C)nc3c(C)ccc([N+](=O)[O-])c23)cc1	17.8 µM [rising, single point]	11.2 µM [rising, partial curve, poor fit]
CC12CCC(CC1)C(C)(C)O2	0.1 µM [falling, single point]	35.5 µM [falling, single point]
Cc1ccc(C2c3[nH]c4ccccc4c3CCN2C(=O)CCC2CCCC2)cc1 (stereo not drawn)		3.55 µM [rising, full curve]

Compound	AC50 [1]	AC50 [2]
CC(C)(C)C(=O)Cn1nnc(-c2ccc(C(F)(F)F)cc2)n1		0.0794 µM [falling, full curve, poor fit]
Cc1ccc(Cl)cc1-n1ncc2c(Nc3cccc(C)c3C)ncnc21	20 µM [falling, partial curve, poor fit]	
Cc1ccn2cc(C(=O)Nc3ccccc3N3CCOCC3)nc2c1	15.8 µM [rising, single point]	
O=C(Nc1cc(=O)[nH]c2ncnn12)c1ccccc1Cl	10 µM [rising, single point]	
CS(=O)(=O)N(CCc1ccccc1)CC(=O)N1CCN(Cc2ccc3c(c2)OCO3)CC1	8.91 µM [rising, partial curve]	12.6 µM [rising, partial curve]
Cc1cc(-c2ccc(N3CCOCC3)cc2)nc2ccccc12	35.5 µM [rising, single point]	35.5 µM [rising, partial curve, poor fit]
Cc1cc2c(n1-c1ccc(C(=O)NCc3ccc(OC(C)C)cc3)cc1)CCCC2	35.5 µM [falling, single point]	
CC(=O)OC1CCC2C3CCc4cc(O)ccc4C3CCC12C (stereo not drawn)	11.2 µM [rising, partial curve]	6.31 µM [rising, full curve]
CC1=C(CC(=O)c2ccccc2)C(=O)c2ccccc2C1=O	35.5 µM [falling, single point]	35.5 µM [falling, single point]
COc1ccc(-c2noc(CCC(=O)Nc3cc(OC)ccc3OC)n2)cc1	11.2 µM [rising, partial curve, poor fit]	17.8 µM [rising, single point]
CN1/C(=C\C(=O)c2cccnc2Cl)C(C)(C)c2ccccc21	12.6 µM [rising, single point]	20 µM [rising, single point]
CCCCn1c(N2CCC(Cc3ccccc3)CC2)nc2c1c(=O)[nH]c(=O)n2C	12.6 µM [rising, partial curve]	22.4 µM [rising, single point]
O=c1/c(=C/c2ccccn2)sc2nc3ccccc3n12		0.126 µM [falling, full curve, poor fit]
Cc1cc(C)nc(NS(=O)(=O)c2ccc(NC(=O)CN3C(=O)S/C(=C\c4ccccc4)C3=O)cc2)n1	3.98 µM [falling, single point]	
Cc1cc2c(n1-c1ccc(C(=O)NCCc3ccccc3)cc1)CCC(C)C2 (stereo not drawn)	22.4 µM [rising, single point]	15.8 µM [rising, single point]
Cc1cccc2sc(NNC(=O)c3ccc(S(=O)(=O)N4CCc5ccccc5C4)cc3)nc12		2.51 µM [rising, full curve]
Cc1cc(=O)n(C)c(=O)n1CCCNc1ccccc1	11.2 µM [rising, single point]	17.8 µM [rising, single point]
COc1cccc(Cn2c(=O)c(CCc3ccccc3)nc3cnc(N4CCNCC4)nc32)c1	20 µM [falling, partial curve]	20 µM [falling, partial curve]
Cc1ccc2nc(-c3ccc4c(c3)OCCO4)cc(C(=O)O)c2c1		31.6 µM [rising, single point]
Cc1cccc(NS(=O)(=O)c2ccc3c(c2)OCC(C(=O)N2CCCC2)O3)c1C (stereo not drawn)		0.0282 µM [falling, full curve]
CCCc1ccc(C(=O)O)cc1	1.58 µM [falling, partial curve, poor fit]	
COC(=O)N/N=C/c1ccc([N+](=O)[O-])o1		25.1 µM [rising, single point]
Clc1cccc(Cl)c1/C=C/c1nc2ccccc2[nH]1	3.16 µM [rising, partial curve]	15.8 µM [rising, partial curve]
CCOc1ccc(OCc2ccc(C(=O)N/N=C(\C)c3ccccn3)cc2)cc1		35.5 µM [falling, single point]
COc1cccc(C2CC3(CC(C)(C)NC(=S)N3)Oc3cc(O)ccc32)c1 (stereo not drawn)		12.6 µM [rising, single point]
CS(=O)(=O)Cc1nc2ccccc2oc1=O		31.6 µM [rising, single point]
O=C(NCCS(=O)(=O)N1CCN(c2ccc(F)cc2)CC1)C1CC(=O)N(c2ccccc2)C1 (stereo not drawn)	6.31 µM [falling, single point]	2.51 µM [falling, partial curve, poor fit]

Some of the entries so far, with bars between the fields:
Compound | AC50 [1] | AC50 [2]
Cc1ccc(Cl)cc1-n1ncc2c(Nc3cccc(C)c3C)ncnc21 | 20 µM [falling, partial curve, poor fit] | 
Cc1ccn2cc(C(=O)Nc3ccccc3N3CCOCC3)nc2c1 | 15.8 µM [rising, single point] | 
O=C(Nc1cc(=O)[nH]c2ncnn12)c1ccccc1Cl | 10 µM [rising, single point] | 
CS(=O)(=O)N(CCc1ccccc1)CC(=O)N1CCN(Cc2ccc3c(c2)OCO3)CC1 | 8.91 µM [rising, partial curve] | 12.6 µM [rising, partial curve]
